Assay results from publication PMC4438057.
No constants are given. Whether binding was seen depends on the method and setting. Binding seen in cells or lysates may run through a third protein. Here binding means that the protein was enriched with, or labelled near, the bait; the list need not be complete.

Chains of the proteins cited; added tags and fusions are not shown.
UniProt Q9Y4G2: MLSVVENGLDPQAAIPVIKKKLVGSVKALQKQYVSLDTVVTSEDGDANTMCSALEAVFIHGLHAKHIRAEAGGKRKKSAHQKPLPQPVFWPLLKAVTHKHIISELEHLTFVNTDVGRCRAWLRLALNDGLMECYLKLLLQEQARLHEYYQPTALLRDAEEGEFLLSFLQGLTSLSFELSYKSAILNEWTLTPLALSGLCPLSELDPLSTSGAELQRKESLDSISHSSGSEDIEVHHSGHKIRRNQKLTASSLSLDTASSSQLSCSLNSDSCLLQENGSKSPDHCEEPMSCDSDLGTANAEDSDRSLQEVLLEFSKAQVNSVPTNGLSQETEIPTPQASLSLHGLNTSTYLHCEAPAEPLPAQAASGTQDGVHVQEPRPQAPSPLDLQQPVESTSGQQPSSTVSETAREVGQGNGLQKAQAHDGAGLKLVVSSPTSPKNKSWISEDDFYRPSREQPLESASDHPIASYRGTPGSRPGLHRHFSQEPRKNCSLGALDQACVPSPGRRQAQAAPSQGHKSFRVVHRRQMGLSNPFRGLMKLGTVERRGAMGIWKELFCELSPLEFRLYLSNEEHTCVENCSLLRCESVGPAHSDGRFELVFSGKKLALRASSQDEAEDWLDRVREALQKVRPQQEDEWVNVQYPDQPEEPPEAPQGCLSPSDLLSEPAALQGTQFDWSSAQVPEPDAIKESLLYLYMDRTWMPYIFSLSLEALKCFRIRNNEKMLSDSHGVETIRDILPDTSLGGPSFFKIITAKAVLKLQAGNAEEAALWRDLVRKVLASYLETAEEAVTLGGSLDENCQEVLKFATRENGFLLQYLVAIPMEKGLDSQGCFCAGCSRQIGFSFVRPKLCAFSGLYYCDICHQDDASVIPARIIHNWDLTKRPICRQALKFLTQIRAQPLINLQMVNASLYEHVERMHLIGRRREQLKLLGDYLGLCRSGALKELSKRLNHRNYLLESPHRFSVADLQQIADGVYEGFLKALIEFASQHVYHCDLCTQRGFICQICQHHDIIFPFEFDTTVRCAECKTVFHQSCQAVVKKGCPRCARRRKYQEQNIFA
UniProt O14545: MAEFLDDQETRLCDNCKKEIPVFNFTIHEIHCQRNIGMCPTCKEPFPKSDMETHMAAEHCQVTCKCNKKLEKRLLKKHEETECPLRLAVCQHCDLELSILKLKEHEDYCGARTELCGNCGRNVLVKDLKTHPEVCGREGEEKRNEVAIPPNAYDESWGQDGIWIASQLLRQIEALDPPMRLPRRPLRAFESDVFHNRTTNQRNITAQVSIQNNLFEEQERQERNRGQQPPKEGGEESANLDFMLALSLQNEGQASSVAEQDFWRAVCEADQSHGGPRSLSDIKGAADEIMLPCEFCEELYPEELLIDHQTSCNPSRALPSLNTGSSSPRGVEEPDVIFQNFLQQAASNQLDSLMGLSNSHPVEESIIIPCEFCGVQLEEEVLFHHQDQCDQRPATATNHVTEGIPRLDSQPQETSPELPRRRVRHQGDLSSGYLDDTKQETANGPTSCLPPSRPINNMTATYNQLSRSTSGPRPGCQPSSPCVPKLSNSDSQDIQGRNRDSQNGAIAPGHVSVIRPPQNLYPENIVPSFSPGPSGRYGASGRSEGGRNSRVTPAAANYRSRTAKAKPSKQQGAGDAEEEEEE

Target: TAP-tagged full-length human Plekhm1 (human) (UniProt Q9Y4G2)
Assay: affinity purification with mass spectrometry; tandem affinity purification (Streptavidin Sepharose, then Calmodulin Sepharose) of TAP-tagged Plekhm1 from lysate of stably expressing HEK293 cells; eluates analysed by LC-MS/MS

TRAFD1 (FLN29), endogenous in HEK293 cells (from UniProt O14545 1-582)
binding: binds
